Data as given in PMC10024693.
Where a chain is given by its changes, count along the chain named. Results are given in words; binding and its absence hold for the method and conditions named. Binding seen in cells or lysates may run through a third protein. Some entries that bind do so weakly or less than the wild type. For part of these data: Tags and fused reporters may be left off the sequences shown.

The chains behind the UniProt entries cited, without tags or fusion partners.
UniProt Q969H0: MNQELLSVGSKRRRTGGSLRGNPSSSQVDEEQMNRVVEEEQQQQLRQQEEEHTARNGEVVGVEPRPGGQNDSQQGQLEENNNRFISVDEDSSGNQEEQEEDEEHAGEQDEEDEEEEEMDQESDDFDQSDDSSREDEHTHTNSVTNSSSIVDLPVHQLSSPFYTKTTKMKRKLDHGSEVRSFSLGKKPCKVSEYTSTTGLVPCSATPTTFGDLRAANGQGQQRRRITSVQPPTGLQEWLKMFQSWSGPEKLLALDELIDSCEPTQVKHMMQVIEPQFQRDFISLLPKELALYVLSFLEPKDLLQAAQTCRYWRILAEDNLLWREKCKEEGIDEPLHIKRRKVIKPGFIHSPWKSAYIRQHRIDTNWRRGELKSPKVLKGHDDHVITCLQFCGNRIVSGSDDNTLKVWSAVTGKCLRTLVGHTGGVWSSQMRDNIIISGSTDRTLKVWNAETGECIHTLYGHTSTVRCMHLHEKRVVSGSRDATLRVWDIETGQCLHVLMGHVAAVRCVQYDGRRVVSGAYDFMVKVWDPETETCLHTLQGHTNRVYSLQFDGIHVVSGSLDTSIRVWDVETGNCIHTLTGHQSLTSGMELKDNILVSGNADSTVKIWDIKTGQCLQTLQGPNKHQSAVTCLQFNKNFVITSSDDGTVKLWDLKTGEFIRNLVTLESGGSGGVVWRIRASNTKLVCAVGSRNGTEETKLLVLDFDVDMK

How the values were obtained:
[1] = biological target: T1, endogenous DYRK2 of HCT116 cells (human (endogenous in HCT116)) (UniProt Q92630); assay: co-IP; HCT116 cells WT (+/+) and FBXW7 (−/−) treated with DOX (2 μg/ml) or vehicle for 12 h, MG-132 (10 μM); immunoprecipitation with a DYRK2 antibody or control IgGs; WB of endogenous proteins
T1 sequence: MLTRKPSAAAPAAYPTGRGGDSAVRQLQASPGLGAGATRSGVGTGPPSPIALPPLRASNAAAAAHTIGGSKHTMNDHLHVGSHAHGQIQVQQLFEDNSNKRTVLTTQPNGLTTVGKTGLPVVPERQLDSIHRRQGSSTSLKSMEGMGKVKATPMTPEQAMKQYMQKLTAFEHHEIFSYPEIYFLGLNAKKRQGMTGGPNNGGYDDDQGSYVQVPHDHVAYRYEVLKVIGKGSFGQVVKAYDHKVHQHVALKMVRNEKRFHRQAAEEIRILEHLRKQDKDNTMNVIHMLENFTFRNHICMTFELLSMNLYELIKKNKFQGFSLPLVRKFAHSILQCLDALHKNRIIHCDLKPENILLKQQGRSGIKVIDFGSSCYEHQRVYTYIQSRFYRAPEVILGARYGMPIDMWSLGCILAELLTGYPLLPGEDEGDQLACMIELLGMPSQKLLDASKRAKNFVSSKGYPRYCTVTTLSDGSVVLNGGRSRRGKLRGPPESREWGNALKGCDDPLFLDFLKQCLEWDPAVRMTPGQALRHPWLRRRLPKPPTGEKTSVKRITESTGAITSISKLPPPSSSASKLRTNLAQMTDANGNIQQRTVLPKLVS

[2] = biological target: T2, Myc-DYRK2 kinase-dead (KD, K178M) (human) (UniProt Q92630); assay: co-IP; HEK-293T co-transfected with Flag-FBXW7 and Myc-DYRK2 WT or KD; cells treated with MG-132 (10 μM); immunoprecipitation with a Myc antibody or control IgGs; WB
T2 sequence: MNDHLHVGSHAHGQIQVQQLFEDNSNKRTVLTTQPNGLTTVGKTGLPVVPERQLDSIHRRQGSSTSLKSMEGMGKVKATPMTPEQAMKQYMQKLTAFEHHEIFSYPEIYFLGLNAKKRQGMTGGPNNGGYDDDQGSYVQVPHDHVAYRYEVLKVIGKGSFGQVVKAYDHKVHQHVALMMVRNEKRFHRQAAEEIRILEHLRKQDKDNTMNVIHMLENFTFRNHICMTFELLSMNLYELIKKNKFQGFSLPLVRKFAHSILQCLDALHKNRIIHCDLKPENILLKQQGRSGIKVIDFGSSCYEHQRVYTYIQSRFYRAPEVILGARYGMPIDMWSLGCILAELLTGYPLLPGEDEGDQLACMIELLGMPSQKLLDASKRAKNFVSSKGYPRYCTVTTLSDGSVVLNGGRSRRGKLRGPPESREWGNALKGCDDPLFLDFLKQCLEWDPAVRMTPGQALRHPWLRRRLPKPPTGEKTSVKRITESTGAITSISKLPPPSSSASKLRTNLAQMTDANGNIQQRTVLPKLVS

[3] = biological target: T3, Myc-DYRK2 wild type (dual-specificity tyrosine-phosphorylation-regulated kinase 2) (human) (UniProt Q92630); assay: as above
T3 sequence: T2 sequence with M178K

binding [1] | binding [2] | binding [3] | Substance
binds | – | – | endogenous FBXW7 of HCT116 cells (from UniProt Q969H0 1-707)
– | binds | binds | Flag-FBXW7 (F-box and WD repeat domain-containing 7, isoform α), wild type (from UniProt Q969H0 1-707)
